Measured values published in paper PMC3669415.
Results are given in words; binding and its absence hold for the method and conditions named. For part of these data: Binding seen in cells or lysates may run through a third protein. Some results given as binding are weak or reduced against the parent protein; the word gives no strength. Each block holds one molecule with its values, some of them ahead of it.

Sequences of proteins named here, by UniProt entry; tags and fusion partners are left off.
UniProt P61077: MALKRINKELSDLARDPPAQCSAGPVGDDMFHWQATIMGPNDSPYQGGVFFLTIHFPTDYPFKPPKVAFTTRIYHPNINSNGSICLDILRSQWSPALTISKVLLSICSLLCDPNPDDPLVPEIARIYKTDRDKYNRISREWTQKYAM
UniProt O14746: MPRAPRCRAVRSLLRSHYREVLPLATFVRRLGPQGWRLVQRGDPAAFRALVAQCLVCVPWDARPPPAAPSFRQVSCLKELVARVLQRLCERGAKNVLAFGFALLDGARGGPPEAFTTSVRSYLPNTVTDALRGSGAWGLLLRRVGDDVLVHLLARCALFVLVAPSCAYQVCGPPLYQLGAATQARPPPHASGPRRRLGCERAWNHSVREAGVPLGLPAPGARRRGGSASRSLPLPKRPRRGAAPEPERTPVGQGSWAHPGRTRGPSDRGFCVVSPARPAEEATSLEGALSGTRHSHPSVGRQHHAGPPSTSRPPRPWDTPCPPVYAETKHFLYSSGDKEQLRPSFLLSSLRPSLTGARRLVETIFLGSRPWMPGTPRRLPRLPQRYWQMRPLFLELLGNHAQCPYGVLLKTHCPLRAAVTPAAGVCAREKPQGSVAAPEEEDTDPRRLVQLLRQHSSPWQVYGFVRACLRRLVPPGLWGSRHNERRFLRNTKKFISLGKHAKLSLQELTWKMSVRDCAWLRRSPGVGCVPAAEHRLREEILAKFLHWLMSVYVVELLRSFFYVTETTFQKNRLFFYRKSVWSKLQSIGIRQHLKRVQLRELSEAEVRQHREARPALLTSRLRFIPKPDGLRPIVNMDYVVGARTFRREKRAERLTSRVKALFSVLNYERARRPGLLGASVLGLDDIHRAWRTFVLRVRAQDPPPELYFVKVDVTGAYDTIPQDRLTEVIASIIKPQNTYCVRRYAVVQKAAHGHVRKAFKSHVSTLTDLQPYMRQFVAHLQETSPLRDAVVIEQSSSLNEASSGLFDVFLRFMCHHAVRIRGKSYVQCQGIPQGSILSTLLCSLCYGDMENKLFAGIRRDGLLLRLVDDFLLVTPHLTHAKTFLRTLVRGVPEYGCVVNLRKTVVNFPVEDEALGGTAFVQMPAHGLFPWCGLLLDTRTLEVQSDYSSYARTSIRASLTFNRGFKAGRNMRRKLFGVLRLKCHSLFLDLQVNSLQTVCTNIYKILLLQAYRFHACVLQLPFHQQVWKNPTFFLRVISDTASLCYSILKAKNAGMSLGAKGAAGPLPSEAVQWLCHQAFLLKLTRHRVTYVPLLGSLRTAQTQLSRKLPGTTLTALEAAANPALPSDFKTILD

Legend:
[1] = molecular target: FLAG-tagged UBE2D3 (human) (UniProt P61077); assay: co-IP; HEK293T co-transfected with HA-hTERT and Flag-UBE2D3, lysed 24 hr after transfection; precipitated with anti-FLAG or anti-UBE2D3 and protein-A agarose overnight at 4°C, washed with immunoprecipitation buffer and 500 mM NaCl; blotted with anti-HA or anti-hTERT
[2] = molecular target: human telomerase reverse transcriptase (hTERT), two-hybrid bait pGBKT-hTERT (human) (UniProt O14746); assay: two-hybrid; Matchmaker Gold library screen: bait pGBKT-hTERT in Gold yeast mated with the Hep2R cDNA library in pGADT7; blue colonies on DDO/X/A patched onto QDO/X/A, 30°C

binding [1]: binds
Molecule: HA-tagged hTERT (from UniProt O14746 1-1132) (enzyme)

binding [2]: binds
B1: chromosome 18 open reading frame 55 (C18orf55) (protein, UniProt Q9BVV7 1-248)
chain: MICTFLRAVQYTEKLHRSSAKRLLLPYIVLNKACLKTEPSLRCGLQYQKKTLRPRCILGVTQKTIWTQGPSPRKAKEDGSKQVSVHRSQRGGTAVPTSQKVKEAGRDFTYLIVVLFGISITGGLFYTIFKELFSSSSPSKIYGRALEKCRSHPEVIGVFGESVKGYGEVTRRGRRQHVRFTEYVKDGLKHTCVKFYIEGSEPGKQGTVYAQVKENPGSGEYDFRYIFVEIESYPRRTIIIEDNRSQDD

binding [2]: binds
B2: chromosome 19 open reading frame 40 (C19orf40) (protein, UniProt Q9BTP7 1-215)
chain: MEKNPPDDTGPVHVPLGHIVANEKWRGSQLAQEMQGKIKLIFEDGLTPDFYLSNRCCILYVTEADLVAGNGYRKRLVRVRNSNNLKGIVVVEKTRMSEQYFPALQKFTVLDLGMVLLPVASQMEASCLVIQLVQEQTKEPSKNPLLGKKRALLLSEPSLLRTVQQIPGVGKVKAPLLLQKFPSIQQLSNASIGELEQVVGQAVAQQIHAFFTQPR
